Assay results reported in article PMC7819943, “Rice protein-binding microarrays: a tool to detect cis-acting elements near promoter regions in rice”.
The other results are listed elsewhere or left out.

By UniProt entry, the sequences of proteins in these tests, tags left out.
UniProt Q0JBA9, entry or part of it: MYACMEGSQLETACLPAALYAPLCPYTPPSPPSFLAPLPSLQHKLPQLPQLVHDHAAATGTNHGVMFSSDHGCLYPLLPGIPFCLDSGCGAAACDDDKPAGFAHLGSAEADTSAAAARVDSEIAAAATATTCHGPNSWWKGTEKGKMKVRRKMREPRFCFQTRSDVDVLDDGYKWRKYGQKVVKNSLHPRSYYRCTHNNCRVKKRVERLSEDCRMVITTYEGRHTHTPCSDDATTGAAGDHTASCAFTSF

These sequences were tested against OsWRKY34 (Oryza sativa, UniProt Q0JBA9 1-250) (assay: protein-binding microarray (RPBM); PBS, 2% BSA, 51.3 ng/ul salmon testes DNA, 50 uM zinc acetate, 200 nM TF, 25 C, 1 h; high values mean tight binding). Conditions: protein: recombinant; tags: N-terminal polyhistidine and DsRed monomer fusion (pET32a); label: CyDye5-dUTP incorporated in the synthesized complementary strand; 3' TTTTT single-stranded linker to array surface; dsDNA, one strand shown.
In short: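 In PBS with 2% BSA, salmon testes DNA and 50 µM zinc acetate, 200 nM protein was incubated on a custom Agilent array at 25 °C for 1 h and then washed off. The array had been made double-stranded by primer extension with Cy5-dUTP and blocked with 2% BSA. The proteins were transcription factors fused N-terminally to polyhistidine and DsRed, expressed in E. coli BL21-CodonPlus and purified on Ni–NTA. The binding signal is per-feature fluorescence intensity (arbitrary units) from an Axon 4000B scanner.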

In order of rising binding signal:
1. CCCCGTCCCGTACACGTCTATCCAAATGGCCACGTTAATCCGGAGTCACCTAGTGCAG  8020 fluorescence intensity (a.u.)
2. GTTTCACCGTTCCCACCACGCACCCCTCTATTTATCCCCGCGGAGTCACCTAGTGCAG  8050 fluorescence intensity (a.u.)
3. ACTGCTTGCCGCCTCCATCGCCCATTGTTCCCGCCGCCGCCGGAGTCACCTAGTGCAG  8090 fluorescence intensity (a.u.)
4. GAGCTGGTCCTGGCATCGTTTGAATGCCACTCATCACTGCCGGAGTCACCTAGTGCAG  8110 fluorescence intensity (a.u.)
5. GTCGTCGTCGTCGTCGTCCCGTCTCCCGAACTCGCCGTGCCGGAGTCACCTAGTGCAG  8150 fluorescence intensity (a.u.)
6. TCTCCATCCCTCGCATCCCGTGGACCCATTCCACCCAGGACGGAGTCACCTAGTGCAG  8150 fluorescence intensity (a.u.)
7. TGGGCCGGGTTTGGTGGTTGCTTCATGATGTGATTTAAACCGGAGTCACCTAGTGCAG  8170 fluorescence intensity (a.u.)
8. CGCCTCACTCCGCCTCATCACCCGAGGCGCCCCAATCTCCCGGAGTCACCTAGTGCAG  8220 fluorescence intensity (a.u.)
9. TTGAGTTGACGCGAATTGACCCTCATGACCTACCGCCATCCGGAGTCACCTAGTGCAG  8270 fluorescence intensity (a.u.)
10. AAATTTTTTTTTTACCTATACATATCACATATATATCACACGGAGTCACCTAGTGCAG  8280 fluorescence intensity (a.u.)
11. GCTCGGGCATCCTTTTTAAGGGCTCGGGGCGGCGGAATCACGGAGTCACCTAGTGCAG  8290 fluorescence intensity (a.u.)
12. ACCGCTTGTGTATTCTGTCATTCTGAATAACATTGTAATACGGAGTCACCTAGTGCAG  8320 fluorescence intensity (a.u.)
13. AACATACAACACAACGATCTTCCTTGATTGTTATACCTCTCGGAGTCACCTAGTGCAG  8430 fluorescence intensity (a.u.)
14. ATTGCCAGCAGTTACATTCTTGTTTGTATCTTCATAATCTCGGAGTCACCTAGTGCAG  8440 fluorescence intensity (a.u.)
15. TTCCGCGAACCCATTCCCATTCCCATTCCCACTCTCCCTCCGGAGTCACCTAGTGCAG  8480 fluorescence intensity (a.u.)
16. ATTCTTGCGGTGGTTCACAGTTGCATCAGGTTTTTAATTGCGGAGTCACCTAGTGCAG  8480 fluorescence intensity (a.u.)
17. TCAAGACTGCTTCCAGCCATTTCCAATCACATTCTTAGTCCGGAGTCACCTAGTGCAG  8540 fluorescence intensity (a.u.)
18. TTTATATACTCTCTCCGTTCAAATTAATCACACATATGTACGGAGTCACCTAGTGCAG  8560 fluorescence intensity (a.u.)
19. CTCGTCCTTGTTCGTCATCGCGCTCGCTCGATTTCTCCTCCGGAGTCACCTAGTGCAG  8560 fluorescence intensity (a.u.)
20. CGTCAAGTTGTTGGTAGCATCGTTGTTCGTCGTCCCGTCCCGGAGTCACCTAGTGCAG  8600 fluorescence intensity (a.u.)
21. ATAAAGTCGTCGTCGTCTTCCTCTCTCTCTCTCTCTCTCTCGGAGTCACCTAGTGCAG  8630 fluorescence intensity (a.u.)
22. CCCTCGTCTCCCGCGCCTGCCACGCCGCCGAGTCGCGCCACGGAGTCACCTAGTGCAG  8660 fluorescence intensity (a.u.)
23. GCTCGCTACTTGTTGCCCGCCGCTGCTGCTGCCGCCATTGCGGAGTCACCTAGTGCAG  8670 fluorescence intensity (a.u.)
24. TCCGCCTCGGCCACGCCCAGACACGACCAACCCTGCATCCCGGAGTCACCTAGTGCAG  8680 fluorescence intensity (a.u.)
25. ATTGTTTTTTGCGCAAGCTGCTTCCTCCTTTGAGGAAACCCGGAGTCACCTAGTGCAG  8690 fluorescence intensity (a.u.)
26. TCAACCTCTCCCAGACGCGTCGCCCATCTCCACTTCACACCGGAGTCACCTAGTGCAG  8710 fluorescence intensity (a.u.)
27. ACATACTAGTGCAGAAAACTTTTGCAAATACTCTATTTTTCGGAGTCACCTAGTGCAG  8760 fluorescence intensity (a.u.)
28. GTGTTTTCTCGATATCGATATTTTGAGTCTGTTTGACACACGGAGTCACCTAGTGCAG  8760 fluorescence intensity (a.u.)
29. CTGTGTCTGTCTCACCTTTGTGTTCAACTATCAGCCCGGACGGAGTCACCTAGTGCAG  8780 fluorescence intensity (a.u.)
30. AGCATGATACCCATAAGTATTTCTAGTAAAACCAATTCATCGGAGTCACCTAGTGCAG  8860 fluorescence intensity (a.u.)
31. ATACATTGTTTTTCTAACCCCGCTTAAGTATTCATGTTATCGGAGTCACCTAGTGCAG  8870 fluorescence intensity (a.u.)
32. CACACTAAGTCAGCTGTCATGTTGGATAAACCCGAAGTTACGGAGTCACCTAGTGCAG  8920 fluorescence intensity (a.u.)
33. GAGAAACACTCACACACCAGCACACGGCGACCTCATCGGCCGGAGTCACCTAGTGCAG  8930 fluorescence intensity (a.u.)
34. GCGCGAGCCATTATCTTACGTCACGGCCCAAACGCCGAGGCGGAGTCACCTAGTGCAG  8950 fluorescence intensity (a.u.)
35. AGATTGTGCATCATGACTTATCCTGAACGTTGTTGACCTTCGGAGTCACCTAGTGCAG  8960 fluorescence intensity (a.u.)
36. CTCCGATCCGAGCTCCAGATCTGCGGCGCCGGCGACCAACCGGAGTCACCTAGTGCAG  8990 fluorescence intensity (a.u.)
37. ACTCTATACTTACTTCTAATATTCCTTATTTTTAATTCCACGGAGTCACCTAGTGCAG  9050 fluorescence intensity (a.u.)
38. TGTGCAGTGACAAGAAATTTCCTTGCGTCTCTTTGTTTCACGGAGTCACCTAGTGCAG  9060 fluorescence intensity (a.u.)
39. CTACTCTCTCTGTCCCACAATATAAGGAATTTTGAGTTTTCGGAGTCACCTAGTGCAG  9090 fluorescence intensity (a.u.)
40. CCCATCGCCCCACACATCTCCCACCAAACCACCCACCCCACGGAGTCACCTAGTGCAG  9190 fluorescence intensity (a.u.)
41. TTTTCTTCTTTACTACTTTCTCTGTTCCCCTCGCCGTCGCCGGAGTCACCTAGTGCAG  9240 fluorescence intensity (a.u.)
42. TGCTGTTCCATTTTCCATACAGCCATTCTTTTTTTCTGCTCGGAGTCACCTAGTGCAG  9250 fluorescence intensity (a.u.)
43. ATCCGGTTTTTTTCGTTTTTGCCAGTTAGCCTAATTCTGCCGGAGTCACCTAGTGCAG  9250 fluorescence intensity (a.u.)
44. GCTGCTACATTGGTGTGTTTGTTGTACTGCTGCTCGACTCCGGAGTCACCTAGTGCAG  9280 fluorescence intensity (a.u.)
45. GCATATCAACGTTAATTACTGCCGATTTGACTGTTGATTACGGAGTCACCTAGTGCAG  9470 fluorescence intensity (a.u.)
46. GCTCACCCTGATTACATTAATCTATCAATCACCATGCATTCGGAGTCACCTAGTGCAG  9510 fluorescence intensity (a.u.)
47. TTTCCGTGTGTGTGATGAGATTTTTTTTCCTTATCTGCTTCGGAGTCACCTAGTGCAG  9600 fluorescence intensity (a.u.)
48. ATATCCGTAGGCCCTAATTGCTTTCAATATGTCCCTTATTCGGAGTCACCTAGTGCAG  9610 fluorescence intensity (a.u.)
49. CTGCCACACCCACCCACCCGAGACGGACACCGCCGCGAACCGGAGTCACCTAGTGCAG  9810 fluorescence intensity (a.u.)
50. TTCCCTTTTGTTTTCTATTAGATGATCGTCCAGGCGATCTCGGAGTCACCTAGTGCAG  9840 fluorescence intensity (a.u.)
51. TTTAGCCTATTTGGTCTTCATCTGCAAGTCTTATGTTCTGCGGAGTCACCTAGTGCAG  9850 fluorescence intensity (a.u.)
52. CCCATCTGGCGAGCAGAGCAGGGGAGGGGAAGGGATCTTGCGGAGTCACCTAGTGCAG  9910 fluorescence intensity (a.u.)
53. TTTTGTCTTCTATTTCCACCACAGACATAAACTCTATTTTCGGAGTCACCTAGTGCAG  9930 fluorescence intensity (a.u.)
54. CTGTGTTGGACCAGCTCTCTTCTGATTGACTTCTTCCAATCGGAGTCACCTAGTGCAG  9930 fluorescence intensity (a.u.)
55. GGGGTATAATTTGTGTCTTAGCTGATAGAATGTGCAGTTGCGGAGTCACCTAGTGCAG  9980 fluorescence intensity (a.u.)
56. TCGCATATGTCCTCTGACCGCCTGACATTCCATTGTGTTTCGGAGTCACCTAGTGCAG  9990 fluorescence intensity (a.u.)
57. ACAATCCTCATATGTCTATTTTACCACACTCAACCTTTACCGGAGTCACCTAGTGCAG  10000 fluorescence intensity (a.u.)
58. CCTTATCTCGTTAGTGCCATCCTCTCATCGCCGCGGTTTCCGGAGTCACCTAGTGCAG  10100 fluorescence intensity (a.u.)
59. TCGCTGTCCCTCGCTCACTCTCACAGTCTCACTCCGGCCGCGGAGTCACCTAGTGCAG  10200 fluorescence intensity (a.u.)
60. CCTGTGCGTGGTCGGGTTAATTTGTCAGTCTGTCACTTACCGGAGTCACCTAGTGCAG  10200 fluorescence intensity (a.u.)
61. CATATGCTTGTGTTTTTTTTACTGTCAAGTGTCAACGTCTCGGAGTCACCTAGTGCAG  10300 fluorescence intensity (a.u.)
62. CCTCTCTTAGCTTCTCCTAATTTTTTCGCTAGTTTCGTTTCGGAGTCACCTAGTGCAG  10500 fluorescence intensity (a.u.)
63. CGGGTTGGGGAAAAAGCGAGCTGCCGCTTCTGGGTTTTGACGGAGTCACCTAGTGCAG  10600 fluorescence intensity (a.u.)
64. ACTTGTTGATTTATATACCCTTGCTGTCTATGTGAATTTCCGGAGTCACCTAGTGCAG  10600 fluorescence intensity (a.u.)
65. ACCCTAGCACACAGCTCCTGTTGTTTCACGTCCCACTCGTCGGAGTCACCTAGTGCAG  10600 fluorescence intensity (a.u.)
66. CCCGTTTCTCCCTCGCGCCGCCTCGCCGCGGCCGAAATCTCGGAGTCACCTAGTGCAG  10700 fluorescence intensity (a.u.)
67. CTCTGTATGTCGGTATTTTATTTCTAAGTATTCAATTGTTCGGAGTCACCTAGTGCAG  11100 fluorescence intensity (a.u.)
68. CGGATTCGGTCATATTTTTTCGCAAACCGCCACTACCCCACGGAGTCACCTAGTGCAG  11200 fluorescence intensity (a.u.)
69. ACATTCTATATCCTTTGTCTCAAAACAGGCTAGTATTTCACGGAGTCACCTAGTGCAG  11200 fluorescence intensity (a.u.)
70. TTTGCTTTTAGCTACGTCTTTGTTTGTTTCTAGCTACGGACGGAGTCACCTAGTGCAG  11200 fluorescence intensity (a.u.)
71. AGCCGTATCCACCCAGTTGTACATGTGTCCTAGTTGAGAGCGGAGTCACCTAGTGCAG  11400 fluorescence intensity (a.u.)
72. TCCATCTCTCTCGCTCTCTCGCTTGCTCGCCCCGCCGATTCGGAGTCACCTAGTGCAG  11500 fluorescence intensity (a.u.)
73. CATTTTTCTCTTCATCGTTCAGTTTTTTCCTTTTTCCTGTCGGAGTCACCTAGTGCAG  11700 fluorescence intensity (a.u.)
74. GCTGACCTACACGTTGCTCCTTCTCATGCTCCTTCTATTTCGGAGTCACCTAGTGCAG  11800 fluorescence intensity (a.u.)
75. GCCAGAGCCGTCCGTTGTGTTGTGTGTCACCTTTCCGCGCCGGAGTCACCTAGTGCAG  11900 fluorescence intensity (a.u.)
76. GAGGGTTCATGGGGAGGGTAAAGGATGTGCCGGTTGGGAACGGAGTCACCTAGTGCAG  12100 fluorescence intensity (a.u.)
77. GGCCATCCGGTTGGAAAGGTTATTGGGGTAGTATCTTTTTCGGAGTCACCTAGTGCAG  12600 fluorescence intensity (a.u.)
78. CCTACGCGAGCGCGGGCGGGTGGGTTTGTGGGTTATGTTTCGGAGTCACCTAGTGCAG  12800 fluorescence intensity (a.u.)
79. AGGTGGTGGTGGTGGGGAAGGAATTAATCGATCGATCGAGCGGAGTCACCTAGTGCAG  13000 fluorescence intensity (a.u.)
80. GGATTAGGTGAACTTTCAGGGGTACACAGGGGTTTTCTTTCGGAGTCACCTAGTGCAG  13200 fluorescence intensity (a.u.)
81. GTGAGAAAAAGTCAACGGTGTCATCTATTAAAAAATGGAGCGGAGTCACCTAGTGCAG  13800 fluorescence intensity (a.u.)
82. ACCGTTGATTTTTTTAAACATGTTTGACCGTTCGTCTTATCGGAGTCACCTAGTGCAG  17100 fluorescence intensity (a.u.)
83. ATCGGTGGTGGTGGTGGTGGTGGCCATGAGTCTCGTTTGACGGAGTCACCTAGTGCAG  27500 fluorescence intensity (a.u.)
84. CGCCGTTGACTTTTTAAAATTTGTTTGACCGTTCGTCTTACGGAGTCACCTAGTGCAG  30700 fluorescence intensity (a.u.)
